Percent effect of library compounds

By UniProt entry, the sequences of proteins in these tests, tags left out. Residues count along the entry.
UniProt Q8IDJ8, 1-583: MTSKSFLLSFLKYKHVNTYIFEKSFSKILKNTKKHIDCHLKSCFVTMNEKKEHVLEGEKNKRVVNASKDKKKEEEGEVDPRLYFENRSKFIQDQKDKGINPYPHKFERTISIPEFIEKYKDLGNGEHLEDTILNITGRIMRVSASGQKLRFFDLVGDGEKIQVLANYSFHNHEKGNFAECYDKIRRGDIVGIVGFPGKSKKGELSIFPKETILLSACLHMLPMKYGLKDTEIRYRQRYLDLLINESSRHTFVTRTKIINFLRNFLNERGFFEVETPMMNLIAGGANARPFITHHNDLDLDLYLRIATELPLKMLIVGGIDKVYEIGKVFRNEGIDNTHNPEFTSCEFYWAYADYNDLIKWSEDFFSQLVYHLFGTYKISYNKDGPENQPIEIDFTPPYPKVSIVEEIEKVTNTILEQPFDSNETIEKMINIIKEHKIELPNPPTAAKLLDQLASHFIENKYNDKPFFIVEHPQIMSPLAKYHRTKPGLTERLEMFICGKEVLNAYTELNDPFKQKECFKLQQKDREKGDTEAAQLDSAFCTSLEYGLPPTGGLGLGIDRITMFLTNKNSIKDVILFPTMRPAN

From ChEMBL document CHEMBL3988442, “University of Dundee, Small-Polar-MMV Screening Library” (2021).

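Lysine-tRNA ligase, Plasmodium falciparum 3D7 (UniProt Q8IDJ8). Enzyme assay of the cytosolic lysyl-tRNA synthetase in 384-well plates, read by luminescence. Compounds at 30 µM. Higher reads as stronger inhibition, judged from the few compounds that gave an IC50. Of about 69,000 compounds tested this way, about 49 (0.071%) reached 50% or more in at least one test.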

Each number is a percent effect as filed. How 0% and 100% were set is not recorded. Most values in the screen are low, and negative values occur. This is an unselected part of the compounds tested.

With CC(C)NC(=O)CCNC(=O)c1cc(Br)cn1C(C)C the screen gave 2.955%.
With CN(Cc1cc(F)ccc1C#N)CC(C)(CO)CO the screen gave 6.096%.
With N#CCCN(CC1CCCO1)C(=O)c1ccsc1 (stereo not drawn) the screen gave 1.973%.
With O=C(CNC(=O)c1cnc2ccccc2c1O)NCCn1ccnc1 the screen gave 5.905%.
With NC(=O)c1cc(-n2cc(-c3cccc(C(=O)O)c3)cn2)cs1 the screen gave 7.908%.
With CC(=O)N1CCC(n2nccc2-c2cnc(N(C)CCO)nc2)CC1 the screen gave 1.516%.
With CCS(=O)(=O)N1Cc2[nH]nc(COCc3cccnc3)c2C1 the screen gave 2.412%.
With CNc1nc(C2CCCN(C(=O)CNC(C)=O)C2)nc2c1CN(C)CC2 (stereo not drawn) the screen gave -3.069%.
With COCCN(Cc1ccccn1)C(=O)C1CCCCCN1C (stereo not drawn) the screen gave -1.616%.
With COC(=O)CC(NC(=O)c1cccc(CS(C)(=O)=O)c1)c1cccs1 (stereo not drawn) the screen gave 8.179%.
With O=c1n(Cc2ccccn2)nc(C2CCNCC2)n1Cc1ccccc1 the screen gave 1.877%.
With CC(C)CS(=O)(=O)N1C[C@H]2C[C@H](C(=O)NCc3ccccc3)[C@@H](C1)O2 the screen gave 5.563%.
With Cn1nc(C2CCCN(Cc3cc(F)ccc3F)C2)c2nccnc21 (stereo not drawn) the screen gave 4.654%.
With COc1cccc(OC2CN(C(=O)Cn3nc4ccccc4n3)C2)c1 the screen gave 8.387%.
With CC(C)c1nnc(N2C[C@@H]3CC[C@H](C2)N(CC2CCC2)C3)s1 the screen gave 0.3586%.
With Cc1nc(CN2C[C@@H](NC(=O)C3CCC3)[C@H]3COC[C@H]32)cs1 the screen gave 3.445%.
With CC(C)Cc1cc(C(=O)NCCc2ccc(S(C)(=O)=O)cc2)[nH]n1 the screen gave 5.885%.
With Cc1noc([C@@H]2C[C@H]3OCC[C@H]3N(CC3CCCC3)C2)n1 the screen gave -1.742%.
With Cc1cccc(C)c1OC1CCN(Cc2ccn(C)c(=O)c2)CC1 the screen gave 4.183%.
With CCOc1cc(CNc2cc(-c3nc(C)no3)ccn2)ccc1OC the screen gave 1.731%.
With CC(C)N1CCCC(C(=O)NCCCc2cnn(C)c2)C1 (stereo not drawn) the screen gave -2.009%.
With COc1ccc(Br)cc1SCCS(C)(=O)=O the screen gave 3.637%.
With CC(NC(=O)c1ccc(Cl)cc1)c1nnc(SCC(=O)O)n1C (stereo not drawn) the screen gave -1.327%.
With COCc1ccccc1C(=O)N1CCCC1Cn1nc(C)cc1C (stereo not drawn) the screen gave 0.0327%.
With CC(C)C(=O)N1CCN(C(=O)CCc2nnc(-c3ccccc3)o2)CC1 the screen gave 5.985%.
With CCOCC1CC2(CCN(Cc3ccccn3)CC2)CO1 (stereo not drawn) the screen gave 1.544%.
With Cc1nnc(CSc2n[nH]c(-c3ccccn3)n2)o1 the screen gave 3.562%.
With COc1ccc2c(c1)C(C(=O)N(C)CCc1scnc1C)CC(=O)N2 (stereo not drawn) the screen gave 5.234%.
With Cc1cc(C)n(CC(C)NC(=O)NCc2c(C)cc(C)[nH]c2=O)n1 (stereo not drawn) the screen gave -1.56%.
With COc1cc(C)c(CN2CCc3nc4ccsc4c(=O)n3CC2)cc1C the screen gave 1.985%.
With CCN1CCN(C(=O)CCc2c(C)noc2Cl)CC1 the screen gave 3.567%.
With Cc1nc(-c2ccsc2)ccc1C(=O)N(C)CC1CC1 the screen gave 1.814%.
With CC(=O)N1CCN(C(=O)c2c(Cl)c3ccccc3n2C)CC1 the screen gave 5.523%.
With CN(Cc1cccnc1)C(=O)NC1CCN(Cc2ccccn2)CC1 the screen gave 0.6608%.
With Cc1nc(C2CCCN(C(=O)c3ccc(OCC4CC4)cc3)C2)no1 (stereo not drawn) the screen gave -2.035%.
With Cc1cccc(-n2c(C)cc(C(=O)N3CCn4c(C)nnc4C3)c2C)c1 the screen gave 0.1436%.
With Fc1ccc(OC2CCN(Cc3nnc(-c4ccco4)o3)CC2)cc1 the screen gave 4.207%.
With CN1CCC2(CC1)CNC(=O)c1ccccc1O2 the screen gave -0.02296%.
With CCN(CC)C(=O)c1cc(C2(C)CCN(C(C)=O)CC2)nc(C)n1 the screen gave -0.05695%.
With Cc1ncc2c(n1)CN(CC(=O)N1CCc3sccc3C1)CC2 the screen gave -2.53%.
With CC[C@@H](C)[C@@H](N)C(=O)Nc1cccc(-c2cnc(N)nc2)c1 the screen gave 4.642%.
With Cc1ccc(Nc2nccc(C3CCN(C(=O)CO)C3)n2)nc1 (stereo not drawn) the screen gave -0.7933%.
With COCc1nc(C(=O)NS(=O)(=O)c2cc(C)ccc2C)cs1 the screen gave 1.519%.
With COc1ccc2c(ccn2CCC(=O)N[C@H](C(=O)O)C(C)C)c1 the screen gave -3.355%.
With CC(C)c1nc(CN(C)C(=O)c2ccc3c(c2)OCO3)cs1 the screen gave 3.121%.
With Cc1nccn1CCCC(=O)N1CCCC(c2noc(C(C)C)n2)C1 (stereo not drawn) the screen gave 0.04766%.
With CCc1ncncc1C(=O)NCCNS(=O)(=O)c1ccccc1 the screen gave -0.513%.
With CC(=O)Nc1cnc(-n2ccnc2)nc1 the screen gave 7.052%.
With O=C(NCc1cccs1)c1nc2c(o1)CN(c1ncccn1)C2 the screen gave 12.17%.
With CCN(CC)C1CCN(C(=O)NCc2nncn2CC)CC1 the screen gave 1.352%.
With Cc1occc1C(=O)Nc1cccc(C(=O)OCC2CCCN2)c1 (stereo not drawn) the screen gave -2.402%.
With CCC(=O)N1CCN(c2nc(C)nc3c(C)nn(C)c23)CC1 the screen gave 3.619%.
With O=C(CCNC(=O)c1ccoc1)Nc1cc(F)cc(F)c1 the screen gave 16.1%.
With O=C([C@@H]1CC[C@@H]2[C@@H](CCN2c2ccncn2)O1)N1CCCCO1 the screen gave 4.3%.
With O=C(CN(CC(O)c1ccc(F)cc1)C1CC1)NC(C1CC1)C1CC1 (stereo not drawn) the screen gave 3.303%.
With OCc1cc2ccccc2nc1NCC1(O)CCC1 the screen gave 3.766%.
With CCn1nc2c(cc1=O)CN(Cc1nc(CCOC)no1)CC2 the screen gave -0.6799%.

Once more, the final 3:

{"smiles": "O=C(CN(CC(O)c1ccc(F)cc1)C1CC1)NC(C1CC1)C1CC1", "stereo": "stereo not drawn", "effect": 3.303}
{"smiles": "OCc1cc2ccccc2nc1NCC1(O)CCC1", "effect": 3.766}
{"smiles": "CCn1nc2c(cc1=O)CN(Cc1nc(CCOC)no1)CC2", "effect": -0.6799}